Values from PubChem BioAssay AID686938 (Drosophila RNAi Screening Center, 2013).
The deposit covers about 23,000 reagents; this is an unselected part of those with a known target gene and a result. Over the whole deposit, 75 (0.33%) got an active call. 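Raw plate signals without normalisation; calls rest on plate z-scores that were not deposited; ratio present for only 364 wells.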 The record does not give: the dose of the treatment.

- Aim: 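Looking for CRAC channel components and the factors controlling them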 (primary screen)
- System: Drosophila S2R+ cells
- Reagents: long dsRNA against Drosophila genes, about 0.25 µg dsRNA per well, roughly 10,000 cells
- Timing: 5 days of knock-down before the calcium assay
- Treatment: thapsigargin (SERCA pump blocker) to empty calcium stores; entry signal taken 4 min after adding it
- Detection: 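Duplicate raw fluo-4 intensities per well from a plate reader, at rest and four minutes after thapsigargin emptied calcium stores; entry-to-rest ratio filled for only some wells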
- Reading the numbers: calcium entry signal: higher = stronger calcium signal after store depletion; entry to resting ratio: higher = more calcium entry relative to resting level; resting calcium signal: higher = higher resting calcium signal
- Units: calcium entry signal in fluorescence units; resting calcium signal in fluorescence units
- Active means: 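Hit if the duplicate-averaged plate z-score for entry over resting signal is under −3; wells with weak total dye signal (Fmax z < −2) or more than 5 off-targets removed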
- Calls: active = strongly reduced calcium entry; inactive = no strong reduction

{"gene knocked down": "CG13010 (GeneID 32643)", "DRSC id": "DRSC19529", "calcium entry signal, replicate 1": 2.60e7, "calcium entry signal, replicate 2": 3.17e7, "resting calcium signal, replicate 1": 1.42e7, "resting calcium signal, replicate 2": 1.44e7, "activity call": "inactive"}
{"gene knocked down": "CG14965 (GeneID 38388)", "DRSC id": "DRSC08424", "calcium entry signal, replicate 1": 3.99e7, "calcium entry signal, replicate 2": 2.49e7, "resting calcium signal, replicate 1": 2.70e7, "resting calcium signal, replicate 2": 1.14e7, "activity call": "inactive"}
{"gene knocked down": "CG32816 (GeneID 318225)", "DRSC id": "DRSC17337", "calcium entry signal, replicate 1": 5.56e7, "calcium entry signal, replicate 2": 3.75e7, "resting calcium signal, replicate 1": 3.07e7, "resting calcium signal, replicate 2": 1.79e7, "activity call": "inactive"}
{"gene knocked down": "eIF2Bdelta (GeneID 37706)", "DRSC id": "DRSC04058", "calcium entry signal, replicate 1": 4.35e7, "resting calcium signal, replicate 1": 2.12e7, "activity call": "inactive"}
{"gene knocked down": "Gr47a (GeneID 36094)", "DRSC id": "DRSC06221", "calcium entry signal, replicate 1": 4.41e7, "calcium entry signal, replicate 2": 4.45e7, "resting calcium signal, replicate 1": 1.98e7, "resting calcium signal, replicate 2": 1.97e7, "activity call": "inactive"}
{"gene knocked down": "Obp56e (GeneID 37267)", "DRSC id": "DRSC07188", "calcium entry signal, replicate 1": 5.22e7, "calcium entry signal, replicate 2": 5.15e7, "resting calcium signal, replicate 1": 2.08e7, "resting calcium signal, replicate 2": 2.32e7, "activity call": "inactive"}
{"gene knocked down": "Xe7 (GeneID 40699)", "DRSC id": "DRSC12307", "calcium entry signal, replicate 1": 5.08e7, "calcium entry signal, replicate 2": 4.69e7, "resting calcium signal, replicate 1": 2.20e7, "resting calcium signal, replicate 2": 2.14e7, "activity call": "inactive"}
{"gene knocked down": "Asator (GeneID 43794)", "DRSC id": "DRSC17136", "calcium entry signal, replicate 1": 3.99e7, "calcium entry signal, replicate 2": 6.74e7, "entry to resting ratio": 2, "resting calcium signal, replicate 1": 2.04e7, "resting calcium signal, replicate 2": 2.41e7, "activity call": "inactive"}
{"gene knocked down": "Lrt (GeneID 37342)", "DRSC id": "DRSC06045", "calcium entry signal, replicate 1": 2.72e7, "calcium entry signal, replicate 2": 3.27e7, "resting calcium signal, replicate 1": 1.42e7, "resting calcium signal, replicate 2": 1.41e7, "activity call": "inactive"}
{"gene knocked down": "Rbp1-like (GeneID 32293)", "DRSC id": "DRSC19828", "calcium entry signal, replicate 1": 3.26e7, "calcium entry signal, replicate 2": 4.72e7, "resting calcium signal, replicate 1": 1.58e7, "resting calcium signal, replicate 2": 2.13e7, "activity call": "inactive"}
{"gene knocked down": "Rbp1-like (GeneID 32293)", "DRSC id": "DRSC21938", "calcium entry signal, replicate 1": 3.33e7, "calcium entry signal, replicate 2": 4.94e7, "resting calcium signal, replicate 1": 1.64e7, "resting calcium signal, replicate 2": 2.50e7, "activity call": "inactive"}
{"gene knocked down": "Rbp1-like (GeneID 32293)", "DRSC id": "DRSC22075", "calcium entry signal, replicate 1": 3.41e7, "calcium entry signal, replicate 2": 5.08e7, "resting calcium signal, replicate 1": 1.58e7, "resting calcium signal, replicate 2": 2.51e7, "activity call": "inactive"}
{"gene knocked down": "CG14089 (GeneID 40101)", "DRSC id": "DRSC10093", "calcium entry signal, replicate 1": 2.60e7, "calcium entry signal, replicate 2": 4.15e7, "resting calcium signal, replicate 1": 1.26e7, "resting calcium signal, replicate 2": 1.85e7, "activity call": "inactive"}
{"gene knocked down": "vas (retired record) (GeneID 34884)", "DRSC id": "DRSC22007", "calcium entry signal, replicate 1": 2.46e7, "calcium entry signal, replicate 2": 3.49e7, "resting calcium signal, replicate 1": 1.22e7, "resting calcium signal, replicate 2": 1.76e7, "activity call": "inactive"}
{"gene knocked down": "meng (GeneID 33948)", "DRSC id": "DRSC02134", "calcium entry signal, replicate 1": 2.61e7, "calcium entry signal, replicate 2": 2.78e7, "resting calcium signal, replicate 1": 1.22e7, "resting calcium signal, replicate 2": 1.20e7, "activity call": "inactive"}
{"gene knocked down": "PyK (GeneID 42620)", "DRSC id": "DRSC16806", "calcium entry signal, replicate 1": 2.63e7, "calcium entry signal, replicate 2": 3.48e7, "resting calcium signal, replicate 1": 1.66e7, "resting calcium signal, replicate 2": 5.64e7, "activity call": "inactive"}
{"gene knocked down": "CG5355 (GeneID 34421)", "DRSC id": "DRSC02844", "calcium entry signal, replicate 1": 4.75e7, "resting calcium signal, replicate 1": 2.41e7, "activity call": "inactive"}
{"gene knocked down": "CG3726 (GeneID 31525)", "DRSC id": "DRSC18320", "calcium entry signal, replicate 1": 3.36e7, "calcium entry signal, replicate 2": 8.41e7, "resting calcium signal, replicate 1": 1.64e7, "resting calcium signal, replicate 2": 3.61e7, "activity call": "inactive"}
{"gene knocked down": "CG3726 (GeneID 31525)", "DRSC id": "DRSC23143", "calcium entry signal, replicate 1": 4.10e7, "calcium entry signal, replicate 2": 4.92e7, "resting calcium signal, replicate 1": 1.88e7, "resting calcium signal, replicate 2": 2.17e7, "activity call": "inactive"}
{"gene knocked down": "CG31121 (GeneID 42975)", "DRSC id": "DRSC15361", "calcium entry signal, replicate 1": 3.56e7, "calcium entry signal, replicate 2": 5.52e7, "resting calcium signal, replicate 1": 1.73e7, "resting calcium signal, replicate 2": 2.43e7, "activity call": "inactive"}
{"gene knocked down": "CG31121 (GeneID 42975)", "DRSC id": "DRSC15363", "calcium entry signal, replicate 1": 3.90e7, "calcium entry signal, replicate 2": 4.86e7, "resting calcium signal, replicate 1": 1.90e7, "resting calcium signal, replicate 2": 2.19e7, "activity call": "inactive"}
{"gene knocked down": "CG6695 (GeneID 42937)", "DRSC id": "DRSC16098", "calcium entry signal, replicate 1": 5.25e7, "calcium entry signal, replicate 2": 4.62e7, "resting calcium signal, replicate 1": 2.07e7, "resting calcium signal, replicate 2": 1.69e7, "activity call": "inactive"}
{"gene knocked down": "HDAC6 (GeneID 32461)", "DRSC id": "DRSC20252", "calcium entry signal, replicate 1": 3.01e7, "calcium entry signal, replicate 2": 4.00e7, "resting calcium signal, replicate 1": 1.30e7, "resting calcium signal, replicate 2": 1.70e7, "activity call": "inactive"}
{"gene knocked down": "Acsx3 (GeneID 42354)", "DRSC id": "DRSC14309", "calcium entry signal, replicate 1": 3.15e7, "calcium entry signal, replicate 2": 2.51e7, "resting calcium signal, replicate 1": 1.55e7, "resting calcium signal, replicate 2": 1.22e7, "activity call": "inactive"}
{"gene knocked down": "Dip-B (GeneID 48450)", "DRSC id": "DRSC16466", "calcium entry signal, replicate 1": 3.13e7, "calcium entry signal, replicate 2": 3.84e7, "resting calcium signal, replicate 1": 1.38e7, "resting calcium signal, replicate 2": 1.62e7, "activity call": "inactive"}
{"gene knocked down": "CG14852 (GeneID 41765)", "DRSC id": "DRSC14976", "calcium entry signal, replicate 1": 3.20e7, "calcium entry signal, replicate 2": 5.81e7, "resting calcium signal, replicate 1": 1.66e7, "resting calcium signal, replicate 2": 6.86e7, "activity call": "inactive"}
{"gene knocked down": "Sec61alpha (GeneID 33905)", "DRSC id": "DRSC03256", "calcium entry signal, replicate 1": 5.10e7, "resting calcium signal, replicate 1": 3.55e7, "activity call": "active"}

Ordered by “calcium entry signal, replicate 2” (ascending): some entries from above.
{"gene knocked down": "Rbp1-like (GeneID 32293)", "DRSC id": "DRSC21938", "calcium entry signal, replicate 1": 3.33e7, "calcium entry signal, replicate 2": 4.94e7, "resting calcium signal, replicate 1": 1.64e7, "resting calcium signal, replicate 2": 2.50e7, "activity call": "inactive"}
{"gene knocked down": "Rbp1-like (GeneID 32293)", "DRSC id": "DRSC22075", "calcium entry signal, replicate 1": 3.41e7, "calcium entry signal, replicate 2": 5.08e7, "resting calcium signal, replicate 1": 1.58e7, "resting calcium signal, replicate 2": 2.51e7, "activity call": "inactive"}
